No constants are given. Whether binding was seen depends on the method and setting. Some results given as binding are weak or reduced against the parent protein; the word gives no strength. Each block holds one binder with its values, some of them ahead of it.
Columns and labels:
[1] = target: T1, BMP6 peptide motif HLMNPEY (human); assay: linear peptide microarray, 15-mers overlapping by 14
T1 sequence (peptide): HLMNPEY

The chains behind the UniProt entries cited, without tags or fusion partners. Where a name states a change or a piece, a line headed by the entry shows the natural chain unless it says otherwise.
UniProt P22004: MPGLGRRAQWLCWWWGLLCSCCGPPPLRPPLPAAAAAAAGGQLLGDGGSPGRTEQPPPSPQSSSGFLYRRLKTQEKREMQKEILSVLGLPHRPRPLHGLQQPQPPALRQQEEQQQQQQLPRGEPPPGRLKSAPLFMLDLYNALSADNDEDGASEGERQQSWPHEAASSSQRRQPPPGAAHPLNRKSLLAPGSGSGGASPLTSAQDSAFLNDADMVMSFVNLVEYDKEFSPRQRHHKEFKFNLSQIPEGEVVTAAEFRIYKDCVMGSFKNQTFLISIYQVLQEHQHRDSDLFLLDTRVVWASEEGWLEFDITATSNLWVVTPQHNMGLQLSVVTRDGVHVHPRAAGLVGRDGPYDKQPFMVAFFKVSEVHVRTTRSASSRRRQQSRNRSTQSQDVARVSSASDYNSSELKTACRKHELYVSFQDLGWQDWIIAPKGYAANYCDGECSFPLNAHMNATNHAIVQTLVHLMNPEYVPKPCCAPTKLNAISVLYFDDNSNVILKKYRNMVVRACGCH

[2] = target: human BMP6 (Peprotech), reduced monomer on SDS-PAGE (human) (UniProt P22004); assay: Western blot after reducing SDS-PAGE
[3] = target: T2, BMP6 peptide motif … (human); assay: linear peptide microarray, 15-mers overlapping by 14
T2 sequence (peptide): TLVHLMNPEYV

[4] = target: recombinant human BMP6 (Peprotech 120-06) (human) (UniProt P22004); assay: Western blot after non-reducing SDS-PAGE

binding [1]: binds
B1: Antibody B (antibody, human IgG1, lambda, V domains shown)
VH: QVQLVESGGGLVKPGGSLRLSCAASGFTFSSYVVHWVRQAPGKGLEWVGRIRLETHGYAAEYAASVKGRFTISRDDSKNTLYLQMNSLKTEDTAVYYCARVERSKSGFDNWGQGTLVTVSS
VL: QSVLTQPPSVSGAPGQRVTISCTGSSSNIGAGYSVHWYQQLPGTAPKLLIYGQSERPSGVPDRFSGSKSGTSASLAITGLQAEDEADYYCQSWDSSQTLVVFGGGTKLTVLG
notes: also called anti-BMP6 Antibody B

binding [2]: binds | binding [3]: binds | binding [4]: binds
B2: Antibody A (antibody, human IgG4 S228P, kappa, V domains shown)
VH: QVQLVQSGAEVKKPGSSVKVSCKASGYTFTSYAMHWVRQAPGQGLEWMGYINPYNDGTKYNENFKGRVTITADESTSTAYMELSSLRSEDTAVYYCARRPFGNAMDIWGQGTLVTVSS
VL: DIQMTQSPSSLSASVGDRVTITCRSSENIYRNLAWYQQKPGKAPKLLIYAATNLADGVPSRFSGSGSGTDFTLTISSLQPEDFATYYCQGIWGTPLTFGGGTKVEIKR
